# PubChem BioAssay AID493246, Drosophila RNAi Screening Center | 2011
# Screen: 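Genome-wide search for dsRNAs that reduce cell number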 (primary screen)
# Cells: Drosophila Kc and S2R+ cells
# Reagents: long dsRNA against Drosophila genes
# Measured: 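Cell number per well after knock-down, printed as raw plate values; calls were based on per-plate z-scores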
# Reading the numbers: Kc cell number and S2R+ cell number: higher = more cells remaining
# Call rule: 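Counted as a hit if cell number falls by a z-score of at least 3 within its plate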
# The screen tested about 21,000 reagents; this is an unselected part of those with a known target gene and a result. In the full data, 429 (2%) are marked active. 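Values are raw and not normalised between plates; calls rest on per-plate z-scores that were not deposited.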 A number with no mark means an inactive call. Reagents against one gene are numbered here. A plus sign joins genes that one reagent is predicted to hit. Not stated in the record: the amount of reagent, the time to read-out.
gene knocked down,reagent,"Kc cell number, rep 1","Kc cell number, rep 2","S2R+ cell number, rep 1","S2R+ cell number, rep 2"
B52,1,1.52e6,1.54e6,1.21e6,1.24e6
Agxt,1,4.97e5,,9.05e5,
Pgm1,1,1.48e6,1.51e6,1.41e6,1.45e6
CG7582,1,1.69e6,1.73e6,1.02e6,1.12e6
cbt,1,1.33e6,1.27e6,7.38e5,8.57e5
MESK2 + CG10494,1,1.51e6,1.61e6,1.20e6,3.32e5
Fdx1,1,1.24e6,1.52e6,1.19e6,1.16e6
CG16700,1,1.44e6,1.45e6,1.15e6,1.27e6
CG13376,1,1.55e6,1.53e6,1.19e6,1.21e6
Rpn12R,1,1.68e6,1.84e6,1.30e6,1.46e6
E(spl)malpha-BFM,1,1.75e6,1.71e6,9.26e5,1.03e6
l(3)psg2,1,1.36e6,1.39e6,1.13e6,7.66e5
Gr5a,1,1.57e6,1.53e6,9.63e5,1.10e6
Tmlh,1,1.37e6,1.34e6,1.02e6,1.15e6
ogre,1,6.58e5,,8.95e5,
CG12237,1,1.54e6,1.61e6,1.03e6,1.19e6
CG16985,1,1.43e6,1.25e6,1.04e6,1.26e6
CG7691,1,1.26e6,1.40e6,1.09e6,1.15e6
CG10341,1,1.28e6,1.33e6,1.25e6,1.31e6
Slc25A46a,1,6.82e5,,8.71e5,
w,1,1.15e6,1.49e6,1.11e6,1.11e6
w,2,1.38e6,1.38e6,9.86e5,1.09e6
WASp,1,1.73e6,1.87e6,1.09e6,1.21e6
oc,1,1.63e6,1.59e6,1.07e6,1.23e6
Diedel3,1,1.43e6,1.51e6,1.04e6,1.10e6
Ask1,1,1.22e6,1.39e6,1.10e6,1.21e6
veg (retired record),1,1.47e6,1.59e6,1.17e6,1.24e6
fy,1,1.62e6,1.66e6,1.31e6,1.44e6
inaF-B + inaF-D + inaF-C + 1 more,1,1.55e6,1.47e6,9.62e5,1.04e6
CG9386,1,1.65e6,1.11e6,1.24e6,1.35e6
Polr1E,1,1.28e6,1.27e6,1.03e6,1.10e6
Polr1E,2,1.60e6,1.64e6,1.23e6,1.28e6
GstO1,1,1.54e6,1.71e6,1.29e6,1.31e6
RnpS1,1,1.54e6,1.49e6,1.17e6,1.26e6
SdhC,1,1.78e6,1.74e6,1.15e6,1.24e6
CG8419,1,1.90e6,1.89e6,1.22e6,1.40e6
PpD6,1,1.53e6,1.49e6,1.15e6,1.27e6
E(spl)m5-HLH,1,1.46e6,1.46e6,1.05e6,1.08e6
Idh3a,1,1.60e6,1.60e6,1.10e6,1.20e6
CG10725,1,1.46e6,1.53e6,1.47e6,1.20e6
Tm1,1,1.45e6,1.62e6,1.14e6,1.25e6
Tm1,2,1.45e6,1.57e6,9.78e5,1.18e6
Tm1,3,1.65e6,1.68e6,1.33e6,1.37e6
Taf12L,1,1.68e6,1.52e6,1.10e6,1.25e6
Mal-A1,1,1.53e6,1.59e6,1.26e6,1.38e6
CG11369,1,1.57e6,1.58e6,1.13e6,1.23e6
CG2150,1,1.72e6,1.81e6,1.03e6,1.18e6
Ccp84Af,1,1.46e6,1.67e6,1.42e6,1.55e6
CG11504,1,5.01e5,,8.63e5,
CG13579,1,1.60e6,1.69e6,1.36e6,1.49e6
CG13723,1,1.68e6,1.62e6,1.35e6,1.52e6
zf30C,1,1.52e6,1.49e6,1.35e6,1.24e6
Rpt4R,1,1.40e6,1.42e6,1.23e6,1.32e6
CG15036,1,1.35e6,1.44e6,9.54e5,1.08e6
CG12481,1,1.52e6,1.55e6,1.02e6,1.17e6
nanos,1,1.41e6,1.40e6,1.01e6,1.09e6
spd-2,1,1.60e6,1.68e6,1.36e6,1.28e6
O-fut2,1,4.92e5,,8.30e5,
CG33095,1,1.28e6,1.30e6,9.32e5,1.04e6
ETH,1,1.60e6,1.71e6,1.29e6,1.32e6
CR12798,1,1.59e6,1.67e6,1.07e6,1.16e6
slgA,1,1.51e6,1.54e6,1.04e6,1.16e6
CG6294 + CG6299 + CG15642,1,1.52e6,1.48e6,1.06e6,1.13e6
eIF4E5,1,1.57e6,1.50e6,1.19e6,1.18e6
dmrt93B,1,1.21e6,1.24e6,1.14e6,1.23e6
Tfb1,1,1.58e6,1.74e6,1.06e6,1.05e6
CG3635,1,1.49e6,1.54e6,1.24e6,3.38e5
fd3F + CG42499 (retired record),1,1.48e6,1.48e6,9.99e5,1.13e6
fd3F + CG42499 (retired record),2,1.54e6,1.53e6,1.05e6,1.22e6
Fancd2,1,1.20e6,1.14e6,1.06e6,1.20e6
CG33308,1,1.47e6,1.47e6,8.84e5,1.06e6
firl,1,1.51e6,1.55e6,1.26e6,1.38e6
PyK,1,1.07e6,1.15e6,1.05e6,1.14e6
CG14689,1,1.46e6,1.48e6,1.29e6,1.33e6
CG42562,1,1.74e6,1.83e6,1.26e6,1.42e6

An excerpt from above, limited to “Kc cell number, rep 1”.
w #1 = 1.15e6
w #2 = 1.38e6
WASp = 1.73e6
oc = 1.63e6
Diedel3 = 1.43e6
Ask1 = 1.22e6
veg (retired record) = 1.47e6
fy = 1.62e6
